Data: PMC10704561, “Multi-Photon-Sensitive Chromophore for the Photorelease of Biologically Active Phenols” (ACS Chemical Neuroscience, 2023)

Columns and labels:
[1] = One-photon excitation (1PE) photolysis with 365 nm LED, HPLC quantification; format: physicochemical; settings: for yield (chemical yield of released compounds) / Φu (quantum yield of photolysis): 1PE 365 nm, 0.1 mM in KMOPS pH 7.2 (3d, 6c: 10 or 20% CH3CN added); for sensitivity (ε Φu): 365 nm, KMOPS pH 7.2
Procedure: A 0.1 mM solution (3 mL) of each protected phenol in KMOPS buffer (10 or 20% CH3CN was used as a cosolvent for 3d and 6c) was placed in a 3 mL quartz cuvette along with a stirring bar. The solution was irradiated with stirring using a 365 nm LED lamp (Cairn OptoLED Lite). At different time intervals, 80 μL aliquots of the solution were taken out and analyzed by uHPLC (Agilent 1290 Infinity series), monitoring the AUC at 320 nm (Supporting Information, HPLC Data). An external standard calibration method of quantification was used for the calibration of the samples. The experiments were repeated in sets of three. A gradient elution with a flux rate of 0.3 mL/min using a mobile phase comprising A = 0.1% trifluoroacetic acid in water and B = acetonitrile (starting from 5% B to 100% over 10 min and re-equilibrating to 5% B before the next run) was used for the separations. A comparison of the AUC with the calibration curves of the substrates (obtained from known concentration) determined the percentages of the remaining starting materials. The percentages of the remaining starting materials were plotted versus time. The time to 90% of decomposition of the substrate (t90% values) was obtained by fitting a single exponential decay curve to the data using DeltaGraph (Red Rock Software). The following equation was used to calculate the quantum yield (Φu) of each photolysis reaction:[42],[47],[56],[57] Φu = (I σ t90%)^−1, where I is the irradiation intensity (determined by potassium ferrioxalate actinometry and measured in Einstein cm^–2 s^–1),[58] σ is the decadic extinction coefficient (1000 × ε) at 365 nm, and t90% is the time required to consume 90% of the starting material. See Supporting Information Table S1 for the I, σ, and t90% data.

[2] = Two-photon excitation (2PE) photolysis with Ti:sapphire laser, fluorescein as external standard; format: physicochemical; parameters: key to δu 720 (two-photon uncaging action cross section) / δu 740 (two-photon uncaging action cross section): np: No photolysis; settings: for δu 720 (two-photon uncaging action cross section): 2PE 720 nm; for δu 720 (two-photon uncaging action cross section) / δu 740 (two-photon uncaging action cross section): KMOPS pH 7.2, GM = 10^–50 cm^4 s/photon; for δu 740 (two-photon uncaging action cross section): 2PE 740 nm
[3] = parameters: method as in PMID 32077679; settings: cited from earlier work

Question: With `CCCN(CCc1cccs1)[C@@H]1CCc2c(cccc2OCc2cc(OC)c3ccc(O)c(C#N)c3n2)C1` [5c, (R)-7-Hydroxy-4-methoxy-2-(((6-(propyl(2-(thiophen-2-yl)ethyl)amino)-5,6,7,8-tetrahydronaphthalen-1-yl)oxy)methyl)quinoline-8-carbonitrile] as the molecule, how does the “yield (chemical yield of released compounds)” value [1] read?
Answer: Its value is 13%.

Question: And the “Φu (quantum yield of photolysis)” value [1]?
Answer: The value was 0.12.

Question: What about the “sensitivity (ε Φu)” value [1] of the same molecule?
Answer: The value was 278.

Question: What about the “δu 720 (two-photon uncaging action cross section)” value [2] of the same molecule?
Answer: The value was “np ^i”.

Question: What about the “δu 720 (two-photon uncaging action cross section)” value ([2]; listed as MeO-CyHQ-O-RTG) of the same molecule?
Answer: Its value is “did not undergo photorelease”.

Question: And the “δu 740 (two-photon uncaging action cross section)” value [2]?
Answer: The value was “np ^i”.

Question: Which results are given for `Cc1ccc(-c2cc(COc3cc(CCN)ccc3O)nc3c(C#N)c(O)ccc23)cc1.O=C(O)C(F)(F)F` [3d, 2-(3-((8-Cyano-7-hydroxy-4-(p-tolyl)quinolin-2-yl)methoxy)-4-hydroxyphenyl)ethan-1-aminium 2,2,2-trifluoroacetate]?
Answer: yield (chemical yield of released compounds) [1]: 54%; Φu (quantum yield of photolysis) [1]: 0.07; sensitivity (ε Φu) [1]: 337; δu 740 (two-photon uncaging action cross section) [2]: 0.53 GM

Question: For `COc1cc(-c2cc(COc3cc(CCN)ccc3O)nc3c(C#N)c(O)ccc23)cc(OC)c1OC.O=C(O)C(F)(F)F` [3e, 2-(3-((8-Cyano-7-hydroxy-4-(3,4,5-trimethoxyphenyl)quinolin-2-yl)methoxy)-4-hydroxyphenyl)ethan-1-aminium 2,2,2-trifluoroacetate], which “yield (chemical yield of released compounds)” value [1] is on record?
Answer: Its value is 40%.

Question: And the “Φu (quantum yield of photolysis)” value [1]?
Answer: Its value is 0.03.

Question: What about the “sensitivity (ε Φu)” value [1] of the same molecule?
Answer: The value was 142.

Question: And the “δu 740 (two-photon uncaging action cross section)” value [2]?
Answer: The value was “could not be executed; also recorded: np ^i”.

Question: With `N#Cc1c(O)ccc2c(N3CCOCC3)cc(COc3cc(CCN)ccc3O)nc12.O=C(O)C(F)(F)F` [3b, 2-(3-((8-Cyano-7-hydroxy-4-morpholinoquinolin-2-yl)methoxy)-4-hydroxyphenyl)ethan-1-aminium 2,2,2-trifluoroacetate] as the molecule, how does the “yield (chemical yield of released compounds)” value [1] read?
Answer: Its value is 54%.

Question: What about the “Φu (quantum yield of photolysis)” value [1] of the same molecule?
Answer: The value was 0.35.

Question: And the “sensitivity (ε Φu)” value [1]?
Answer: Its value is 1728.

Question: What about the “δu 740 (two-photon uncaging action cross section)” value [2] of the same molecule?
Answer: Its value is 0.44 GM.

Question: For `C=CCc1ccc(OCc2cc(OC)c3ccc(O)c(C#N)c3n2)c(OC)c1` [7c, 2-((4-Allyl-2-methoxyphenoxy)methyl)-7-hydroxy-4-methoxyquinoline-8-carbonitrile], which “yield (chemical yield of released compounds)” value [1] is on record?
Answer: Its value is 44%.

Question: And the “Φu (quantum yield of photolysis)” value [1]?
Answer: The value was 0.27.

Question: And the “sensitivity (ε Φu)” value [1]?
Answer: The value was 2047.

Question: And the “δu 720 (two-photon uncaging action cross section)” value [2]?
Answer: The value was 1.31 GM.

Question: What about the “δu 740 (two-photon uncaging action cross section)” value [2] of the same molecule?
Answer: The value was 0.75 GM.

Question: With `Cc1cc(COc2cc(CCN)ccc2O)nc2c(C#N)c(O)ccc12.O=C(O)C(F)(F)F` [3a, 2-(3-((8-Cyano-7-hydroxy-4-methylquinolin-2-yl)methoxy)-4-hydroxyphenyl)ethan-1-aminium 2,2,2-trifluoroacetate] as the molecule, how does the “yield (chemical yield of released compounds)” value [1] read?
Answer: Its value is 46%.

Question: And the “Φu (quantum yield of photolysis)” value [1]?
Answer: The value was 0.25.

Question: What about the “sensitivity (ε Φu)” value [1] of the same molecule?
Answer: The value was 1235.

Question: And the “δu 740 (two-photon uncaging action cross section)” value [2]?
Answer: The value was 0.50 GM.

Question: Which results are given for `COc1cc(COc2ccc(CCN)cc2O)nc2c(C#N)c(O)ccc12.O=C(O)C(F)(F)F` [3c, 2-(4-((8-Cyano-7-hydroxy-4-methoxyquinolin-2-yl)methoxy)-3-hydroxyphenyl)ethan-1-aminium 2,2,2-trifluoroacetate]?
Answer: yield (chemical yield of released compounds) [1]: 56%; Φu (quantum yield of photolysis) [1]: 0.36; sensitivity (ε Φu) [1]: 2045; fold higher δu than CyHQ-O-DA ([2]; 1.49 GM at 720 nm versus 0.24 GM for CyHQ-O-DA): 6 fold; δu 720 (two-photon uncaging action cross section) [2]: 1.49 GM; δu 740 (two-photon uncaging action cross section) [2]: 0.85 GM; photolysis achieved under 2PE ([2]; 720 nm, within 30 min of irradiation): up to 28%; fold enhancement of δu compared to CyHQ-O-DA ([2]; 740 nm): 3.5 fold

Question: Which “yield (chemical yield of released compounds)” value [1] does the source give for `COc1cc(COc2ccc3[nH]cc(CCN)c3c2)nc2c(C#N)c(O)ccc12.O=C(O)C(F)(F)F` [4c, 2-(5-((8-Cyano-7-hydroxy-4-methoxyquinolin-2-yl)methoxy)-1H-indol-3-yl)ethan-1-aminium 2,2,2-trifluoroacetate] here?
Answer: Its value is 31%.

Question: What about the “Φu (quantum yield of photolysis)” value [1] of the same molecule?
Answer: The value was 0.40.

Question: And the “sensitivity (ε Φu)” value [1]?
Answer: The value was 2168.

Question: What about the “δu 720 (two-photon uncaging action cross section)” value [2] of the same molecule?
Answer: The value was 1.61 GM.

Question: What about the “δu 740 (two-photon uncaging action cross section)” value [2] of the same molecule?
Answer: Its value is 1.01 GM.

Question: With `N#Cc1c(O)ccc2ccc(COc3cc(CCN)ccc3O)nc12` [CyHQ-O-DA] as the molecule, how does the “yield (chemical yield of released compounds)” value ([3]; 1PE) read?
Answer: The value was 67%.

Question: What about the “Φu (quantum yield of photolysis)” value ([3]; 1PE) of the same molecule?
Answer: Its value is 0.19.

Question: What about the “sensitivity (ε Φu)” value [3] of the same molecule?
Answer: The value was 990.

Question: For `CCCCCCCCC(=O)NCc1ccc(OCc2cc(OC)c3ccc(O)c(C#N)c3n2)c(OC)c1` [6c, N-(4-((8-Cyano-7-hydroxy-4-methoxyquinolin-2-yl)methoxy)-3-methoxybenzyl)nonanamide], which “yield (chemical yield of released compounds)” value [1] is on record?
Answer: The value was 63%.

Question: What about the “Φu (quantum yield of photolysis)” value [1] of the same molecule?
Answer: Its value is 0.51.

Question: And the “sensitivity (ε Φu)” value [1]?
Answer: Its value is 1731.

Question: And the “δu 720 (two-photon uncaging action cross section)” value [2]?
Answer: The value was 1.36 GM.

Question: And the “δu 740 (two-photon uncaging action cross section)” value [2]?
Answer: Its value is 0.85 GM.

Entries after “also recorded” stand apart in the source; their conditions may differ. Like-named read-outs stand apart in the source and are kept apart here.
